Publication doi:10.1101/2023.01.24.525315 (bioRxiv, 2023)
No constants are given. Whether binding was seen depends on the method and setting. Some binding calls cover weakened binding; strength is not graded here. For some of these results: Sequences can lack the tags named with a protein.

Protein sequences, listed by entry. Tags and fused reporters are not part of them. Lines headed by an entry give the natural chain unless they say otherwise; changes in a name come on top.
UniProt Q24572: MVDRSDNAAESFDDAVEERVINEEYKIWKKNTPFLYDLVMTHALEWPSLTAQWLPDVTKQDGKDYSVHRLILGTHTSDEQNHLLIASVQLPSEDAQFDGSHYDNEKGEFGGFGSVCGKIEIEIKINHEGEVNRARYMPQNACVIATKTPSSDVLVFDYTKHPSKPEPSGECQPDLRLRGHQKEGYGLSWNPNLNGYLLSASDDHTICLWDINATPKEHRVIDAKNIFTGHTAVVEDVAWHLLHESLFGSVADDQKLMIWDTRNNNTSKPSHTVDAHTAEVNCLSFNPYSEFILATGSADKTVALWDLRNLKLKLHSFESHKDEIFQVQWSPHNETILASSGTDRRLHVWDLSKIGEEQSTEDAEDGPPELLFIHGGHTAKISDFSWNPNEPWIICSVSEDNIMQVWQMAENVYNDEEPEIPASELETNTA

T1: GST-CBM (Caf1-binding-motif, Ash1 1,582-1,616) (fly (Drosophila melanogaster)) (UniProt Q9VW15)
T1 sequence: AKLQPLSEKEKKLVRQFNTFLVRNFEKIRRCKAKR

T2: GST-CBM E1591A (fly (Drosophila melanogaster)) (UniProt Q9VW15)
T2 sequence: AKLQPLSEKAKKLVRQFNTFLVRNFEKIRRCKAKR

B1: Mrg15 full length (protein, UniProt Q9Y0I1 1-424)
chain: MGEVKPAKVENYSTGTDANTLFVDGERVLCFHGPLIYEAKVLKTKPDATPVEYYIHYAGWSKNWDEWVPENRVLKYNDDNVKRRQELARQCGERSKKDNKKGSAKAKKMEQMRNESRASTPSKDSNTSQSTASSTPTTSAGPGSKSEAGSTGTTTTNSTANSTTSRAHRKSTQSTPSTARPGTPSDKKEDPAAAETTEEEGPVAPKKKRMSEQRPSLTGSDVAEKPLPPTTTPSTPTTEPAPCVESEEAYAAKVEVKIKIPDELKHYLTDDWYAVVREHKLLELPAKVTVQQISEQYLAHKKSVKSTSASKEVAINDVLDGIVEYFNVMLGSQLLYKFERTQYADVMQKHPDTPLSELYGSFHLLRLFVRLGSMLSYSALDQQSMQNLLTHVQDFLKFLVKNSSIFFSMSNFINVDPEYVRNAQ

Assays:
[1] = target: T1, GST-CBM (Caf1-binding-motif, Ash1 1,582-1,616) (fly (Drosophila melanogaster)); assay: pull-down
[2] = target: Ash1 1041-2226 (fly (Drosophila melanogaster)) (UniProt Q9VW15); assay: co-purification
[3] = target: T2, GST-CBM E1591A (fly (Drosophila melanogaster)); assay: pull-down

Molecule	binding [2]	also measured
Caf1 H4 binding pocket mutant (D362A/D365A) (from UniProt Q24572 1-430)		binding [1]: no binding (tested: 0.1mg/ml)
Caf1 full length (co-expressed in the AMC complex) (from UniProt Q24572 1-430)	binds	
Fly Caf1 wild-type (from UniProt Q24572 1-430)		binding [3]: no binding (tested: 0.1mg/ml)
B1	binds	
